Test results: the supplement of paper PMC6411743
± gives the standard deviation of the averaged measurements. The list shows a part of the results, in another mix than the full data.

How the values were obtained:
Experiment in all cases: NP40-soluble protein abundance relative to vehicle (solubility fold change) (ratio); higher = more soluble protein in presence of ATP
[1] = biological target: T1, H0Y2P2 and related entries (UniProt Q96IV0)
T1 sequence (whole entry): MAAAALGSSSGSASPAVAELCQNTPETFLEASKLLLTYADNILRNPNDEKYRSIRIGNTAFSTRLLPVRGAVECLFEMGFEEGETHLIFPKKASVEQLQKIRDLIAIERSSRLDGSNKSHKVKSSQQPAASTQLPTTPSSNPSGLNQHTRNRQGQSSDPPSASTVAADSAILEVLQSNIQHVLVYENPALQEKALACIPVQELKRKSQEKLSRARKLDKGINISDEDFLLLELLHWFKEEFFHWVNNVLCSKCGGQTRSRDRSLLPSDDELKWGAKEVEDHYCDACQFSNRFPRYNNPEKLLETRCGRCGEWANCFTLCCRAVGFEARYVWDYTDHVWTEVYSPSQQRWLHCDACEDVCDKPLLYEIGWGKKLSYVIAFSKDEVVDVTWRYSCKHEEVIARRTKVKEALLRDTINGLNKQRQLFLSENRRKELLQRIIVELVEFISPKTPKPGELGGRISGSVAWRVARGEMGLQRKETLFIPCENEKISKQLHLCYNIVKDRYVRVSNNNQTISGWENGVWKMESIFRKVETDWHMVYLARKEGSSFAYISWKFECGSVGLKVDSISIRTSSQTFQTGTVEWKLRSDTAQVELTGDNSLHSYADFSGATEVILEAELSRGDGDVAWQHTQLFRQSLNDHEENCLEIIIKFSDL
Method in brief: (§1)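 Across three independent experiments, values are fold changes against the detergent-processed vehicle for each replicate, based on vsn-normalised intensities. The samples were Jurkat crude lysate treated with eight concentrations (0.1 to 10 mM) for 10 min at room temperature and then 3 min at 37 °C. Lysate was solubilised with 0.8% NP40 and benzonase, ultracentrifuged, and the supernatant analysed by TMT-labelled LC-MS/MS.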

[2] = biological target: T2, H0Y6T6 and related entries (UniProt Q8IXM6)
T2 sequence (whole entry): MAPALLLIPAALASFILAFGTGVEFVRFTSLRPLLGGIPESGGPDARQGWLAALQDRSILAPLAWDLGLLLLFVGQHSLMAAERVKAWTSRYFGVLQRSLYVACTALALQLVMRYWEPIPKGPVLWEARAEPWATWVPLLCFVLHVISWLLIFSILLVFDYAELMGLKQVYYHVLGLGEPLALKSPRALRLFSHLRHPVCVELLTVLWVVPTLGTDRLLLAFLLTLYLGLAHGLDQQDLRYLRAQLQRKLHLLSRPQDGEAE
Method in brief: as §1

[3] = biological target: T3, H0Y714 and related entries (UniProt Q96G21)
T3 sequence (whole entry): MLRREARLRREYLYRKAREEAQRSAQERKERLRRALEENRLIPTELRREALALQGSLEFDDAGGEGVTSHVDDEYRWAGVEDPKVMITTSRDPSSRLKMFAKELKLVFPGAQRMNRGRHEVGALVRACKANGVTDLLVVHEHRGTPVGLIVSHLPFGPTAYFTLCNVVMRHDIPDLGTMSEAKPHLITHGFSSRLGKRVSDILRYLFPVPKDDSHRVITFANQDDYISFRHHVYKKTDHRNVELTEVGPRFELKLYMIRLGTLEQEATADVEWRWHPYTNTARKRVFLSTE
Method in brief: as §1

[4] = biological target: T4, H0Y7P7 and related entries (UniProt Q9UG56)
T4 sequence (whole entry): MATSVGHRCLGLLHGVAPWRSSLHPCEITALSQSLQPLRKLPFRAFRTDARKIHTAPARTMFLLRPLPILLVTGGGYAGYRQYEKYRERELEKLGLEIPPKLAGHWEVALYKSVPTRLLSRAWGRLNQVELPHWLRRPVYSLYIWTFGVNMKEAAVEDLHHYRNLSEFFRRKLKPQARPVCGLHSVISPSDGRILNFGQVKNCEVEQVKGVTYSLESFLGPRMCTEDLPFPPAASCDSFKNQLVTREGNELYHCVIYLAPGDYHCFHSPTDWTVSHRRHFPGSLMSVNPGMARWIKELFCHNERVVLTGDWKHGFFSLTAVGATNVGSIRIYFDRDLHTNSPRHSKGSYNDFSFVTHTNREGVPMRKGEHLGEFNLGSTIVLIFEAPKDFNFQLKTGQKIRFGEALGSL
Method in brief: as §1

[5] = biological target: T5, H0Y9I3 and related entries (UniProt Q9HAV4)
T5 sequence (whole entry): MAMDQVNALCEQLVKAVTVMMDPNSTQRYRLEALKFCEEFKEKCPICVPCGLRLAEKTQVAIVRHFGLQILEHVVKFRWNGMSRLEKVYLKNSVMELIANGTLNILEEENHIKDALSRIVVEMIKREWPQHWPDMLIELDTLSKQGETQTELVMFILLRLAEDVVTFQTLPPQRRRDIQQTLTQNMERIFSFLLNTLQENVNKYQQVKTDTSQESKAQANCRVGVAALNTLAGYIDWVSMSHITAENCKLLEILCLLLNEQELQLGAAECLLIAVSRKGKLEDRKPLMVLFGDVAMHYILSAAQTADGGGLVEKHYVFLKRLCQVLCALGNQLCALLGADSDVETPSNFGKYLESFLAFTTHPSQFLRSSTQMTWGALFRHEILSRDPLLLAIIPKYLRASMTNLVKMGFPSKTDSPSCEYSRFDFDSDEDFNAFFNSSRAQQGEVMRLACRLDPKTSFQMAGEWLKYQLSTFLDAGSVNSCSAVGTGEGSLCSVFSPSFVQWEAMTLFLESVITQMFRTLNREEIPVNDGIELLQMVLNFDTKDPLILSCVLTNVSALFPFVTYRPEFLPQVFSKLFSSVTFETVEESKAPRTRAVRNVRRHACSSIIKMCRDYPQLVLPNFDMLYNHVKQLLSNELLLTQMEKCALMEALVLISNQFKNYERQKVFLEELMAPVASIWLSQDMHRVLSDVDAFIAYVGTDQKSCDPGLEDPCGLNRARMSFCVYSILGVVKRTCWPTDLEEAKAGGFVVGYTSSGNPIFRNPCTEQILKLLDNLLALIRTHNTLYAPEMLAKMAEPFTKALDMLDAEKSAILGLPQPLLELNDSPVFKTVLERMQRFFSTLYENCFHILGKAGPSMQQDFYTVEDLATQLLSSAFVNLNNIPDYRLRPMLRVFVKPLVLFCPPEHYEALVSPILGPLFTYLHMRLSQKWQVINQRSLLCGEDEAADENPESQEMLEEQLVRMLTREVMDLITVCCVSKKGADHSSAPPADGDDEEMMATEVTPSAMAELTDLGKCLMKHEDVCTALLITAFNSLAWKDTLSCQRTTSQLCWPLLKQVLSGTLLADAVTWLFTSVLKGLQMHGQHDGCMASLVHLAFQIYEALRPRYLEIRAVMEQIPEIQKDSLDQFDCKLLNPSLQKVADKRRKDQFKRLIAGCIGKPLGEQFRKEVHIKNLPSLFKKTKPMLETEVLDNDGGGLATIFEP
Method in brief: as §1

[6] = biological target: T6, H0YBI6 and related entries (UniProt Q86VQ6)
T6 sequence (whole entry): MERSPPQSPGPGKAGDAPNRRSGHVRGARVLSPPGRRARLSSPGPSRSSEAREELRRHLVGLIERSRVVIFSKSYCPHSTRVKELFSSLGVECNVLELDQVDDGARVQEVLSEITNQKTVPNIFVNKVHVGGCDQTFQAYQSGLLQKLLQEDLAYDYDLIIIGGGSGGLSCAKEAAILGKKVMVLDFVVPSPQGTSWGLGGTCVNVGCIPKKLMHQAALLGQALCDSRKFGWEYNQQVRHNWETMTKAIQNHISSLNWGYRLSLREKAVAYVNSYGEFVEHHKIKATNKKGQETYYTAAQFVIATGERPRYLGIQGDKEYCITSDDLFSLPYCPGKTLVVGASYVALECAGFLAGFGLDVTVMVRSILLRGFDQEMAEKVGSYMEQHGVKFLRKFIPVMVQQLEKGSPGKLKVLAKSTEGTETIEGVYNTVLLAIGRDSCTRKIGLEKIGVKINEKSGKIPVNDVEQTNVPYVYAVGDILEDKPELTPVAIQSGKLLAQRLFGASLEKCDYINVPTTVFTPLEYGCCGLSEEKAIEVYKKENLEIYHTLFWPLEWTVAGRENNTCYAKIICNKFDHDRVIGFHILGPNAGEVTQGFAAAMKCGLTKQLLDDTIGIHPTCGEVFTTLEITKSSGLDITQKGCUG
Method in brief: as §1

[7] = biological target: T7, H0YMI4 and related entries (UniProt Q9Y6I4)
T7 sequence (whole entry): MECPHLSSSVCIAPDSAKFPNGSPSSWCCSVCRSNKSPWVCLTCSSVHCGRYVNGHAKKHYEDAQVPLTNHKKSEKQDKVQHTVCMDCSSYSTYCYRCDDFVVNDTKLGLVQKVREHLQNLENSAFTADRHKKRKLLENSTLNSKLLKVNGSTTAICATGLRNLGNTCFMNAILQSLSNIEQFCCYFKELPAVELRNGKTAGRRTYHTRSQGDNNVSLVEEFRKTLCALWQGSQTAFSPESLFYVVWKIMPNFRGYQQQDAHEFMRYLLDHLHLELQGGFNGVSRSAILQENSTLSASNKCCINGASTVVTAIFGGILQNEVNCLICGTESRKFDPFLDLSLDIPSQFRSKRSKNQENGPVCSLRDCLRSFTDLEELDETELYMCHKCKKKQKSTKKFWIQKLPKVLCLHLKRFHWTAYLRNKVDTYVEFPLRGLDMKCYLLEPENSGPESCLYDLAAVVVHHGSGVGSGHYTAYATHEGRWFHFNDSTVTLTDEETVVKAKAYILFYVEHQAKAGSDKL
Method in brief: as §1

[8] = biological target: T8, H0YN33 and related entries (UniProt Q9BW66)
T8 sequence (whole entry): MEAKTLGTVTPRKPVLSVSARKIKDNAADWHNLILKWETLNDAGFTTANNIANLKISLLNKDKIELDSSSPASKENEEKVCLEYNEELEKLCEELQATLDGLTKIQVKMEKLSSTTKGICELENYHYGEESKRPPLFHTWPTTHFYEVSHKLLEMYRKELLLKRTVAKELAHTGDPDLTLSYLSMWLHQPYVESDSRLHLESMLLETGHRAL
Method in brief: as §1

Nc1ncnc2c1ncn2[C@@H]1O[C@H](COP(=O)(O)OP(=O)(O)OP(=O)(O)O)[C@@H](O)[C@H]1O [adenosine triphosphate]
NP40-soluble protein abundance ([1]; concentration: 1mM): 0.956 ± 0.064 | NP40-soluble protein abundance ([1]; concentration: 2mM): 0.946 ± 0.04 | NP40-soluble protein abundance ([1]; concentration: 4mM): 0.942 ± 0.046 | NP40-soluble protein abundance ([1]; concentration: 6mM): 0.902 ± 0.039 | NP40-soluble protein abundance ([1]; concentration: 8mM): 0.937 ± 0.046 | NP40-soluble protein abundance ([1]; concentration: 10mM): 0.955 ± 0.029 | NP40-soluble protein abundance ([2]; concentration: 1mM): 0.99 ± 0.17 | NP40-soluble protein abundance ([2]; concentration: 2mM): 0.969 ± 0.08 | NP40-soluble protein abundance ([2]; concentration: 4mM): 0.966 ± 0.084 | NP40-soluble protein abundance ([2]; concentration: 6mM): 0.722 ± 0.078 | NP40-soluble protein abundance ([2]; concentration: 8mM): 0.957 ± 0.098 | NP40-soluble protein abundance ([2]; concentration: 10mM): 1.03 ± 0.13 | NP40-soluble protein abundance ([3]; concentration: 1mM): 1.01 ± 0.17 | NP40-soluble protein abundance ([3]; concentration: 2mM): 1.06 ± 0.15 | NP40-soluble protein abundance ([3]; concentration: 4mM): 1.09 ± 0.036 | NP40-soluble protein abundance ([3]; concentration: 6mM): 1.01 ± 0.29 | NP40-soluble protein abundance ([3]; concentration: 8mM): 1.12 ± 0.18 | NP40-soluble protein abundance ([3]; concentration: 10mM): 1.16 ± 0.16 | NP40-soluble protein abundance ([4]; concentration: 1mM): 0.975 ± 0.077 | NP40-soluble protein abundance ([4]; concentration: 2mM): 0.962 ± 0.041 | NP40-soluble protein abundance ([4]; concentration: 4mM): 0.998 ± 0.075 | NP40-soluble protein abundance ([4]; concentration: 6mM): 0.998 ± 0.049 | NP40-soluble protein abundance ([4]; concentration: 8mM): 1.02 ± 0.071 | NP40-soluble protein abundance ([4]; concentration: 10mM): 0.988 ± 0.046 | NP40-soluble protein abundance ([5]; concentration: 1mM): 0.977 ± 0.071 | NP40-soluble protein abundance ([5]; concentration: 2mM): 0.954 ± 0.055 | NP40-soluble protein abundance ([5]; concentration: 4mM): 0.961 ± 0.062 | NP40-soluble protein abundance ([5]; concentration: 6mM): 0.931 ± 0.11 | NP40-soluble protein abundance ([5]; concentration: 8mM): 0.983 ± 0.056 | NP40-soluble protein abundance ([5]; concentration: 10mM): 0.95 ± 0.064 | NP40-soluble protein abundance ([6]; concentration: 1mM): 0.995 ± 0.15 | NP40-soluble protein abundance ([6]; concentration: 2mM): 1 ± 0.065 | NP40-soluble protein abundance ([6]; concentration: 4mM): 0.97 ± 0.11 | NP40-soluble protein abundance ([6]; concentration: 6mM): 0.962 ± 0.13 | NP40-soluble protein abundance ([6]; concentration: 8mM): 1.01 ± 0.11 | NP40-soluble protein abundance ([6]; concentration: 10mM): 1 ± 0.075 | NP40-soluble protein abundance ([7]; concentration: 1mM): 0.977 ± 0.064 | NP40-soluble protein abundance ([7]; concentration: 2mM): 1.02 ± 0.034 | NP40-soluble protein abundance ([7]; concentration: 4mM): 1.03 ± 0.045 | NP40-soluble protein abundance ([7]; concentration: 6mM): 0.96 ± 0.075 | NP40-soluble protein abundance ([7]; concentration: 8mM): 0.985 ± 0.035 | NP40-soluble protein abundance ([7]; concentration: 10mM): 0.992 ± 0.044 | NP40-soluble protein abundance ([8]; concentration: 1mM): 1.34 ± 0.081 | NP40-soluble protein abundance ([8]; concentration: 2mM): 1.39 ± 0.026 | NP40-soluble protein abundance ([8]; concentration: 4mM): 1.41 ± 0.086 | NP40-soluble protein abundance ([8]; concentration: 6mM): 1.48 ± 0.092 | NP40-soluble protein abundance ([8]; concentration: 8mM): 1.54 ± 0.14 | NP40-soluble protein abundance ([8]; concentration: 10mM): 1.38 ± 0.1
